Patent US20050084876A1 (APOXIS SA FORMERLY APOTECH RESEARCH AND DEVELOPMENT LTD A …, published 2005)
Results are given in words; binding and its absence hold for the method and conditions named. Some binding calls cover weakened binding; strength is not graded here. For some of these results: Where a sequence is shown, tags or fusion partners need not be part of it.

Assays:
[1] = biological target: T1, myc-marked cytoplasmic protein segment of the CD95 (Fas) death receptor (murine) (UniProt P25446); assay: co-transfection in 293T cells, co-immune precipitation
T1 sequence (looked up): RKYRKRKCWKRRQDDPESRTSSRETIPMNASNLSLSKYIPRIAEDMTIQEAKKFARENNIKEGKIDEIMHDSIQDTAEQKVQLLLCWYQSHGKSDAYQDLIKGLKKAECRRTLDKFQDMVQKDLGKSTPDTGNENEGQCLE

[2] = biological target: T1, myc-marked cytoplasmic protein segment of the CD95 (Fas) death receptor (murine); assay: anti-Flag agarose immune precipitation, Western blot, co-transfected 293T cells
[3] = biological target: T1, myc-marked cytoplasmic protein segment of the CD95 (Fas) death receptor (murine); assay: co-transfection in 293T cells, co-immune precipitation, Western blot
[4] = biological target: T2, CD95 (APO-1/Fas) death receptor of human Raji B cells, stimulated with agonistic anti-APO-1 antibody (human), P25445; assay: anti-APO-1 immune precipitation from 35S-marked Raji clones, 2D gel electrophoresis; details: remark: other sources report otherwise
T2 chain: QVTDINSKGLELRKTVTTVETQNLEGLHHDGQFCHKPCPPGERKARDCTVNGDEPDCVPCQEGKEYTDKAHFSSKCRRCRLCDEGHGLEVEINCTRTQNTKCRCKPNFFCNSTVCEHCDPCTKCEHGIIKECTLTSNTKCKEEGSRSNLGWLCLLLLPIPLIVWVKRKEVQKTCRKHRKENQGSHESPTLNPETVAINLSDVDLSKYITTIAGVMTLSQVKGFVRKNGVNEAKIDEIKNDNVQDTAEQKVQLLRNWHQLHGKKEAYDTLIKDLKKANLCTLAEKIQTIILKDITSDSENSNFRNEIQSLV

Question: Which results are given for “adaptor protein FADD (human) (from UniProt Q13158 1-208)”?
Answer: binding [1]: binds; binding [2]: binds; binding [3]: binds

B1: adaptor protein FADD (human) (other, UniProt Q13158 1-208, looked up)
chain: MDPFLVLLHSVSSSLSSSELTELKFLCLGRVGKRKLERVQSGLDLFSMLLEQNDLEPGHTELLRELLASLRRHDLLRRVDDFEAGAAAGAAPGEEDLCAAFNVICDNVGKDWRRLARQLKVSDTKIDSIEDRYPRNLTERVRESLRIWKNTEKENATVAHLVGALRSCQMNLVADLVQEVQQARDLQNRSGAMSPMSWNSDASTSEAS
notes: also called CAP1
Question: How did the binding [4] turn out when B1 was run?
Answer: binds
